The values that follow come from publication PMC8103646.

Results are given in words; binding and its absence hold for the method and conditions named. Binding seen in cells or lysates may run through a third protein. Binding can be weak; no strength is given. Sequences can lack the tags named with a protein.

For this assay, the target named is T1, IGPR-1-Myc (immunoglobulin and proline-rich receptor-1), wild type (human) (UniProt Q96BF3).
T1 sequence: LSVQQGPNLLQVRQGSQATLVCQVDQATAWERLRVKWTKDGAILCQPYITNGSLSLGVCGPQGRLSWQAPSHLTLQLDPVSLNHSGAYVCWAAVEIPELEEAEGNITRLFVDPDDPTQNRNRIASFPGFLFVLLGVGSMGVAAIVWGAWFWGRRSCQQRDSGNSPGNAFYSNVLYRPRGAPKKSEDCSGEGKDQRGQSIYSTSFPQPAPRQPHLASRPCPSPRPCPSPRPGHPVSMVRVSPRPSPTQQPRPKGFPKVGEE
Kind of assay: co-IP; HEK-293 cells expressing IGPR-1-Myc or Δ57/IGPR-1-Myc transfected with NEDD4-HA, lysed after 48 h; immunoprecipitation with anti-IGPR-1 or anti-Myc antibody, Western blot with anti-HA antibody.

With “NEDD4-HA (full-length, wild-type NEDD4) (from UniProt P46934-4) (enzyme)”, the binding entry is on record as “binds”.
